Drawing on patent publication US20190040142A1, this text covers binding for four molecules.

These are yes or no findings as the source states them, for the method shown. A result given as binding can be weak or reduced; the word gives no strength.

Assay in all cases: FACS, HEK293T cells expressing human/rat KLB chimeric proteins; summary table of + and - by epitope bin
Test [1] deals with human/rat KLB chimera, fourth bar of FIG. 11B.
Test [2] concerns the target human/rat KLB chimera, fifth bar of FIG. 11B.
Test [3] has as its target human/rat KLB chimera, third bar of FIG. 11B.
The target of test [4] is human/rat KLB chimera, sixth bar of FIG. 11B.

B1: anti-KLB monoclonal antibody 12B8 (antibody, V domains shown)
VH: QIQLVQSGPELKKPGETAKISCKASGYAFSNYGMNWVKQAPGKDLKWMGWIDTDTGEATYTDDFKGRFVFSLETSASTAYLQINNLKNEDMATYFCAREEYGLFGFPYWGHGTLVTVSA
VL: DIQMTQSSSSFSVSLGDRVTITCKASEDIYNRLAWYQQKPGSAPRLLISAATSLETGVPSRFSGSGSGKDYTLSITSLQTEDVATYYCQQYWSNPLTFGAGTKLELK
On to B1, for which the binding entry in test [1] was “no binding (tested: not given)”; in test [2] it was “binds”; in test [3], “binds”; in test [4], “no binding (tested: not given)”.

B2: anti-KLB monoclonal antibody 23B3 (antibody, V domains shown)
VH: EVQLQESGPGLVKPSQSLSLTCSVTGYSITSGYYWNWIRQFPGNKLEWMGYIRYDGNSNYNPFLKNRVSITRDTSKNQFFLKLNSVTTEDTATYYCTRKGAYYSSFDALDYWGQGTSVTVSS
VL: DIVMTQSPSSMYASLGERVTISCKASQDIRSYLSWFQQKPGKSPKTLIYRANRLVDGVPSRFSGSGSGQDYSLTITSLEFGDVGLYYCLQYDEFPLTFGAGTKLKIE
Turning to B2, the binding entry is on record as “binds” in test [1], “no binding (tested: not given)” in test [2], “binds” in test [3] and “no binding (tested: not given)” in test [4].

B3: anti-KLB monoclonal antibody 2C12 (antibody, human IgG1, V domains shown)
VH: EVQLQQSGPGLVKPSQSLSLTCSVTGYSITSGYYWTWIRQFPGNKLEWMGYIKYDGGNYYNPSLRNRISITRDTSKNHFFLKFYSVTAEDTATYFCARGDYYASPYGAMDSWGQGTSVTVSS
VL: DIVMTQSPSSLSASLGDTITITCHASQDIDVWLSWYQQKPGNVPQLLISKSSILHTGVPSRFSGGGSGTGFTLTISSLQPEDIATYYCQQGLSYPFTFGSGTKLKIK
With B3, the binding entry is recorded as “binds” in test [1], “no binding (tested: not given)” in test [2], “binds” in test [3] and “no binding (tested: not given)” in test [4].

B4: anti-KLB monoclonal antibody 28B7 (antibody, IgG1, V domains shown)
VH: EVQLQQSGPELVQPGTSVKISCEASGYTFTDYYINWVKQSRGKSLEWIGDINPNNGDTTYNQKFKAKATLTVDRSSNTAYMELRSLTSEDSVVYYCARRFYSSPFDSWGQGTTLTVSS
VL: DIVMTQSPSSLAVSVGEKVTLSCKSGQSLLYSRNQKNYLAWYQQKPGQSPKLLISWASTRESGVPDRFTGSGSGTDFTLTISSVKTEDLAVYHCQQYYSYPYTFGGGTRLEIK
On to B4, for which the binding result is given as “no binding (tested: not given)” in test [1], “no binding (tested: not given)” in test [2], “no binding (tested: not given)” in test [3] and “binds” in test [4].
